Data as given in the supplement of paper PMC10849652.
This is one part of the list.

Chains of the proteins cited; added tags and fusions are not shown. Lines headed by an entry give the natural chain unless they say otherwise; changes in a name come on top.
UniProt P51452: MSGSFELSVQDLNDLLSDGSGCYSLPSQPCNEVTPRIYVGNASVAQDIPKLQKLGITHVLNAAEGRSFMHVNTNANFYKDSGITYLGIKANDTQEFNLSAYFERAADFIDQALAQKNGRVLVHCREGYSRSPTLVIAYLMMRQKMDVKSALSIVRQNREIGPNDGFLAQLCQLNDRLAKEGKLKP
UniProt Q8TEA8: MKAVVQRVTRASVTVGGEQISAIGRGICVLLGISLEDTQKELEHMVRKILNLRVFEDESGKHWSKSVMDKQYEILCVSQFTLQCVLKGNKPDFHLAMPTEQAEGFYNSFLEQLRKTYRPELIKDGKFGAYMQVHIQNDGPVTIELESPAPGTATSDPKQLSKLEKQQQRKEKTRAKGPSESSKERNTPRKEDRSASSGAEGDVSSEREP
UniProt P55039: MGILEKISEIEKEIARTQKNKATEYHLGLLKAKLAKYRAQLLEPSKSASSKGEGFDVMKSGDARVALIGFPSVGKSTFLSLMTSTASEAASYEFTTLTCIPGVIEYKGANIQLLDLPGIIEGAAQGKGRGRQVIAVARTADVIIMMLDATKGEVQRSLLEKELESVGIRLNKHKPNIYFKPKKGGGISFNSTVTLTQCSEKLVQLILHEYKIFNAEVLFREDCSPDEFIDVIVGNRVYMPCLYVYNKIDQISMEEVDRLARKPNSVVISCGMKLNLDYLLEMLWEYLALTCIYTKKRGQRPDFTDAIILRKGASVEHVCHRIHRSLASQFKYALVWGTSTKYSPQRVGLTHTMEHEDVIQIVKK
UniProt Q96FX2: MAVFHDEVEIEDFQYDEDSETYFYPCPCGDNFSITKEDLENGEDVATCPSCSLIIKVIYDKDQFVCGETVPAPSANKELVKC
UniProt P26358: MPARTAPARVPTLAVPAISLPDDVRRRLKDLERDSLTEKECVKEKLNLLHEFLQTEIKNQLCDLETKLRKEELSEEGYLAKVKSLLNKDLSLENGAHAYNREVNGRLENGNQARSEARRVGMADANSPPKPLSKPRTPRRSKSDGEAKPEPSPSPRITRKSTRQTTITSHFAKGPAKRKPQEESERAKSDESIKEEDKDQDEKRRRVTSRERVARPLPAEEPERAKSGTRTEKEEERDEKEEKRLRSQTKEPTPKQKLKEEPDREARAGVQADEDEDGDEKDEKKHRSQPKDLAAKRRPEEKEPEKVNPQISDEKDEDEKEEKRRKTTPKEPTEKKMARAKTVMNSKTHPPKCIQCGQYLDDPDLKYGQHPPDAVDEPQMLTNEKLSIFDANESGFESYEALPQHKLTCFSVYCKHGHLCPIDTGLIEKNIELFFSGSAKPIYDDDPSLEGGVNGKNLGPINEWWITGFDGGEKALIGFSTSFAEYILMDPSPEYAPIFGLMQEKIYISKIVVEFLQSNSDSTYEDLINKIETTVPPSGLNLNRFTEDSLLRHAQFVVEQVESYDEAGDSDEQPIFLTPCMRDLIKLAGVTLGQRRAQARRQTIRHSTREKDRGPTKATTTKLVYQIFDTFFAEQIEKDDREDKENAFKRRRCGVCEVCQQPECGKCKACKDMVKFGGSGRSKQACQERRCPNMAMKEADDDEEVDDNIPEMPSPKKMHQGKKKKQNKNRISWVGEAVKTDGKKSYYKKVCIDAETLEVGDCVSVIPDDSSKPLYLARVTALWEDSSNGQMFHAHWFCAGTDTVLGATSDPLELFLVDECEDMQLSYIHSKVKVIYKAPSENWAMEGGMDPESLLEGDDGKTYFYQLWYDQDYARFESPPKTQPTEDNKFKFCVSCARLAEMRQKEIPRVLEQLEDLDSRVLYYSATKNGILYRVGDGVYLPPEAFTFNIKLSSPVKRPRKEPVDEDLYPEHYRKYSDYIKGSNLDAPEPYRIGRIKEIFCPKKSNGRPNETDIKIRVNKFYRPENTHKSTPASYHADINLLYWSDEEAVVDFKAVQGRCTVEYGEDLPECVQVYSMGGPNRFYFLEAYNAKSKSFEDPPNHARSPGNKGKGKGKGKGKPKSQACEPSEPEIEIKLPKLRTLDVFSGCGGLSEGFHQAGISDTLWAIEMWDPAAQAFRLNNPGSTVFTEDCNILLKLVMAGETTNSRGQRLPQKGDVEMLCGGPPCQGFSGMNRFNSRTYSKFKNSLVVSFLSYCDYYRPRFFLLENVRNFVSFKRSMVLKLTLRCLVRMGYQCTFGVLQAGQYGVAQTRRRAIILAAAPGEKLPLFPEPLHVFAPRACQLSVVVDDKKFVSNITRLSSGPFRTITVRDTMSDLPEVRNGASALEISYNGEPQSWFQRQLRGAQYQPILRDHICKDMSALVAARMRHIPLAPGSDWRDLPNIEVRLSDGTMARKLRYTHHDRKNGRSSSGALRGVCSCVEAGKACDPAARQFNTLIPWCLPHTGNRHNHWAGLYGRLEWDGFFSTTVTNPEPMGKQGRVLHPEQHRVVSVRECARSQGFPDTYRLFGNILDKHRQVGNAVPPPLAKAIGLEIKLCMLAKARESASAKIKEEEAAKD
UniProt P63167, whole entry, looked up: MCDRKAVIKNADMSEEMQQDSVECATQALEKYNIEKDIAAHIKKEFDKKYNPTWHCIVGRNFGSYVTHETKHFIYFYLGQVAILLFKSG
UniProt Q96FJ2, whole entry, looked up: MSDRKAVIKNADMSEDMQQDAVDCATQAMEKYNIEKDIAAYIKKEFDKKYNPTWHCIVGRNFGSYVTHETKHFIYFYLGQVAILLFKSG
UniProt Q96EY1: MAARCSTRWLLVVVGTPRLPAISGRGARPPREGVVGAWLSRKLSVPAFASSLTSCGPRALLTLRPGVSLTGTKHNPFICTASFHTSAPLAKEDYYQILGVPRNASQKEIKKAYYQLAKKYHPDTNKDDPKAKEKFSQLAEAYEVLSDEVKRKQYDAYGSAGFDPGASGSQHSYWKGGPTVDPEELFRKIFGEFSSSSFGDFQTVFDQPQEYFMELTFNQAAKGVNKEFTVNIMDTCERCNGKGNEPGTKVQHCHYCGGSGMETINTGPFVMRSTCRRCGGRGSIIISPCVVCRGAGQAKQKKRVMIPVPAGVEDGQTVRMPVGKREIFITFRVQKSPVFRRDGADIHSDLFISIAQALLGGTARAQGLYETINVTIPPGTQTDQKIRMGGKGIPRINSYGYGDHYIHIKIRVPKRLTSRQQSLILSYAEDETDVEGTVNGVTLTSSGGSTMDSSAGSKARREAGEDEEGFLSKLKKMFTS
UniProt P42126: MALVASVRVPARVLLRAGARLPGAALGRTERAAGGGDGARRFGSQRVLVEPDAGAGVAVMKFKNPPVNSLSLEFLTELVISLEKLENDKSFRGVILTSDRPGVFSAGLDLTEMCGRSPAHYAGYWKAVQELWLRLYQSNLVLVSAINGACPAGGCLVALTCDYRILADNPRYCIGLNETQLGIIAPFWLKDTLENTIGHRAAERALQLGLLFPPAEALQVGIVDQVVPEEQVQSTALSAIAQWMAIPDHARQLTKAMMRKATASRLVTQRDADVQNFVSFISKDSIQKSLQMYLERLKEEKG
UniProt Q9H3H5: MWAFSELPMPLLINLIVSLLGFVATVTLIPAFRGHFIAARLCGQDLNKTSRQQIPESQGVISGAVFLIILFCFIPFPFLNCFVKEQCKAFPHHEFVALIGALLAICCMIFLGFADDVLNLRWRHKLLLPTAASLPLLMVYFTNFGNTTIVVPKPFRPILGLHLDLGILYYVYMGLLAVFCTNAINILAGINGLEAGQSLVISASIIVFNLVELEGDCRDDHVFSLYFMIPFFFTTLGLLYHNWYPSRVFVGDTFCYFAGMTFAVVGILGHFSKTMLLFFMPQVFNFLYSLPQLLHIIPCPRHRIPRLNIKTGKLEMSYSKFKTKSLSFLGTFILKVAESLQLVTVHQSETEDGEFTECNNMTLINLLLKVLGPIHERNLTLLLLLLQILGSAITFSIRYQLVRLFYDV
UniProt Q9NVM6: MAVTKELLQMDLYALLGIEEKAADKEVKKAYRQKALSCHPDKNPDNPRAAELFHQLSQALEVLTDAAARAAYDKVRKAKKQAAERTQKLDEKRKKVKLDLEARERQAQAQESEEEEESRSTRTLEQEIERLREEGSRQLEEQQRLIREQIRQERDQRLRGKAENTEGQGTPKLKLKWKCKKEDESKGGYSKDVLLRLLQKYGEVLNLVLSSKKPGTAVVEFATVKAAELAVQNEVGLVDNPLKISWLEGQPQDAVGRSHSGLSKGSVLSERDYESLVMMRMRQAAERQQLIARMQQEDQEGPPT
UniProt Q56P03: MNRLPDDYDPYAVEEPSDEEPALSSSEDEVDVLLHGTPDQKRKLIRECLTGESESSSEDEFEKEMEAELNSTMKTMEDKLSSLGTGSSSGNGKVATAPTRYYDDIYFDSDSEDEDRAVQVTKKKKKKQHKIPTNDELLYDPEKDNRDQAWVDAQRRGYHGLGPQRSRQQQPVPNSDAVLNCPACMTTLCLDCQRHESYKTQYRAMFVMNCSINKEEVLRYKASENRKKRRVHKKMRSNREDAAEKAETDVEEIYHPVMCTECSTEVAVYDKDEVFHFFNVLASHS
UniProt Q7Z388: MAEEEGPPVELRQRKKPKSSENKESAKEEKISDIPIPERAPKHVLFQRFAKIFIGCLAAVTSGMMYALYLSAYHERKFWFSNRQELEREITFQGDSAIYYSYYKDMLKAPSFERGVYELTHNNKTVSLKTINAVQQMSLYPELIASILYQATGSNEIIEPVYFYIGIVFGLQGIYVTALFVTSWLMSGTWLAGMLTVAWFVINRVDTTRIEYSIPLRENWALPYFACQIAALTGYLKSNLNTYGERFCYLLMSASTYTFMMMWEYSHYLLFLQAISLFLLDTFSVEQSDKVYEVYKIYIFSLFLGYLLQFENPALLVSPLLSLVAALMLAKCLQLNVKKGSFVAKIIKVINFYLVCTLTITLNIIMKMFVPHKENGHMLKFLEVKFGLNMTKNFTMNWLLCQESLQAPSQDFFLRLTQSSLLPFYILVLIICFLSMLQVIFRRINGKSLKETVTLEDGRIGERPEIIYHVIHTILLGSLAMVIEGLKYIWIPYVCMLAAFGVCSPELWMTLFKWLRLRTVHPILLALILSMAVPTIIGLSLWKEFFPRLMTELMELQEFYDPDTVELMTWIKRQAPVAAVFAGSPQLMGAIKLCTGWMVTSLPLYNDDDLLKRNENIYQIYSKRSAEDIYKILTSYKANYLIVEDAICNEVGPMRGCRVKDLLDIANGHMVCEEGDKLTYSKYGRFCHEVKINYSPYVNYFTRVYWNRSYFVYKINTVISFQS
UniProt Q9UNI6, whole entry, looked up: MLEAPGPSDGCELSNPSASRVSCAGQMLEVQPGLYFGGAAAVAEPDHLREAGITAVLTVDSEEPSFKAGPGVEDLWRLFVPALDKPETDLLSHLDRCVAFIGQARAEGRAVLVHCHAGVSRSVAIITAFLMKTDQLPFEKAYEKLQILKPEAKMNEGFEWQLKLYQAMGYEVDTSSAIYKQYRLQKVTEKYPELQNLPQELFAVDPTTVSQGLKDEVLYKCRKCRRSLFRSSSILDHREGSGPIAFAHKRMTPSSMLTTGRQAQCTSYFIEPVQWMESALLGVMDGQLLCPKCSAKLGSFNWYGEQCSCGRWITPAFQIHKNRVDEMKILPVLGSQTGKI
UniProt Q9BZQ6: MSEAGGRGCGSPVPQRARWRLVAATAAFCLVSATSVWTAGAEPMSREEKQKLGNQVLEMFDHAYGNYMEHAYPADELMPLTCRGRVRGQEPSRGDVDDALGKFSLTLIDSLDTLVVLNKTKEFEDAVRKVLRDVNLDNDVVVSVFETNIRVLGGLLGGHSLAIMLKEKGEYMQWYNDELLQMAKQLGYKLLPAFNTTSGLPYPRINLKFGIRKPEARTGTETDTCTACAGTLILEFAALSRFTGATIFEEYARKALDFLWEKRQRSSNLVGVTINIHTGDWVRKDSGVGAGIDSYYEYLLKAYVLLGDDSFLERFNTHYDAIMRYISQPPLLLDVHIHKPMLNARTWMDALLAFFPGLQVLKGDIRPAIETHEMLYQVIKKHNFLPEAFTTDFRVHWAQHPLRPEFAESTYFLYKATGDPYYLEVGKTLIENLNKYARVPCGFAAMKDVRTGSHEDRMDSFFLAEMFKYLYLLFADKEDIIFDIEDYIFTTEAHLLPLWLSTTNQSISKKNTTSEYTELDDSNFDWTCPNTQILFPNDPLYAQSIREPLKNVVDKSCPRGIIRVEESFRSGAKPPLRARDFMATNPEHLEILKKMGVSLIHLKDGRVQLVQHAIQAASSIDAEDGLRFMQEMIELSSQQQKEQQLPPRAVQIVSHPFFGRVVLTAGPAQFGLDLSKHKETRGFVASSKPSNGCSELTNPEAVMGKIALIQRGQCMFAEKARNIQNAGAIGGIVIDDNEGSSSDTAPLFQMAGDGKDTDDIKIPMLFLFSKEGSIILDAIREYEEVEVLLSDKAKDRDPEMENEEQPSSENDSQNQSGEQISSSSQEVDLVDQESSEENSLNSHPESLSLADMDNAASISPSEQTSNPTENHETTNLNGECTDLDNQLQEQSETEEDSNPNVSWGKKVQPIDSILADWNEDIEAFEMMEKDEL

Legend:
Assay in all cases: log2 fold change, soluble protein after heating vs DMSO (PISA); higher = thermal stabilisation; K562 cells, 10 uM, 30 min; active = over 0.2 and 3.5 SD of the protein, either way, in both replicates (recomputed)
saracatinib = compound: CN1CCN(CCOc2cc(OC3CCOCC3)c3c(Nc4c(Cl)ccc5c4OCO5)ncnc3c2)CC1 [saracatinib]
Summary of the method: (§1)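 K562 cells (2×10^6 cells/mL) were treated with 10 μM compound for 30 min, and aliquots were heated for 3 min over 48°C-58°C. Pooled aliquots were extracted in PBS with 0.5% NP-40 at 4°C, and the supernatant after 21,000xg for 90 min was measured by TMTpro 16plex LC-MS/MS with channel sums equalised. Reported thermal stability, relative to control samples and from duplicates, is a log2 fold change.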

sotrastaurin = compound: CN1CCN(c2nc(C3=C(c4c[nH]c5ccccc45)C(=O)NC3=O)c3ccccc3n2)CC1 [sotrastaurin]
Summary of the method: as §1

alvocidib = compound: CN1CC[C@H](c2c(O)cc(O)c3c(=O)cc(-c4ccccc4Cl)oc23)[C@H](O)C1 [alvocidib]
Summary of the method: as §1

Tubastatin A = compound: CN1CCc2c(c3ccccc3n2Cc2ccc(C(=O)NO)cc2)C1 [Tubastatin A]
Summary of the method: as §1

[1] = compound: CNC(=O)C1=CC=CC=C1NC2=NC(=NC=C2Cl)NC3=C(C=C(C=C3)N4CCOCC4)OC
Summary of the method: as §1

defactinib = compound: CNC(=O)c1ccc(Nc2ncc(C(F)(F)F)c(NCc3nccnc3N(C)S(C)(=O)=O)n2)cc1 [defactinib]
Summary of the method: as §1

rucaparib = compound: CNCc1ccc(-c2[nH]c3cc(F)cc4c3c2CCNC4=O)cc1 [rucaparib]
Summary of the method: as §1

[2] = compound: CNc1nc(-c2ccc3c(N)n[nH]c3c2)cc(N2C[C@@H](C(=O)NC3CCCCC3)CC[C@H]2C)n1
Summary of the method: as §1

encorafenib = compound: COC(=O)N[C@@H](C)CNc1nccc(-c2cn(C(C)C)nc2-c2cc(Cl)cc(NS(C)(=O)=O)c2F)n1 [encorafenib]
Summary of the method: as §1

[3] = compound: COC(=O)[C@H](CCSC)NC(=O)C1=C(C=C(C=C1)NC[C@H](CS)N)C2=CC=CC=C2
Summary of the method: as §1

[4] = compound: COC1=CC=C(C=C1)CN2C=CC3=C2C=C(C=C3)C(=O)NO
Summary of the method: as §1

filanesib = compound: CON(C)C(=O)N1N=C(c2cc(F)ccc2F)S[C@@]1(CCCN)c1ccccc1 [filanesib]
Summary of the method: as §1

zotarolimus = compound: CO[C@H]1C[C@@H]2CC[C@@H](C)[C@@](O)(O2)C(=O)C(=O)N2CCCC[C@H]2C(=O)O[C@H]([C@H](C)C[C@@H]2CC[C@H](n3cnnn3)[C@H](OC)C2)CC(=O)[C@H](C)/C=C(\C)[C@@H](O)[C@@H](OC)C(=O)[C@H](C)C[C@H](C)/C=C/C=C/C=C/1C [zotarolimus]
Summary of the method: as §1

idasanutlin = compound: COc1cc(C(=O)O)ccc1NC(=O)[C@@H]1N[C@@H](CC(C)(C)C)[C@](C#N)(c2ccc(Cl)cc2F)[C@H]1c1cccc(Cl)c1F [idasanutlin]
Summary of the method: as §1

alisertib = compound: COc1cc(Nc2ncc3c(n2)-c2ccc(Cl)cc2C(c2c(F)cccc2OC)=NC3)ccc1C(=O)O [alisertib]
Summary of the method: as §1

[5] = compound: COc1cc2nc(-c3cc(F)ccc3O)nc(N[C@@H]3CNC[C@H]3C(C)(C)O)c2cc1OC
Summary of the method: as §1

gefitinib = compound: COc1cc2ncnc(Nc3ccc(F)c(Cl)c3)c2cc1OCCCN1CCOCC1 [gefitinib]
Summary of the method: as §1

[6] = compound: COc1cccc2cc(-c3nc([C@H]4CC[C@H](C(=O)O)CC4)n4ncnc(N)c34)[nH]c12
Summary of the method: as §1

lapatinib = compound: CS(=O)(=O)CCNCc1ccc(-c2ccc3ncnc(Nc4ccc(OCc5cccc(F)c5)c(Cl)c4)c3c2)o1 [lapatinib]
Summary of the method: as §1

pictilisib = compound: CS(=O)(=O)N1CCN(Cc2cc3nc(-c4cccc5[nH]ncc45)nc(N4CCOCC4)c3s2)CC1 [pictilisib]
Summary of the method: as §1

Measured: log2 fold change

DUSP3 (UniProt P51452)
inactive: saracatinib 0.036 | sotrastaurin -0.009 | alvocidib -0.061 | Tubastatin A 0.084 | [1] 0.064 | defactinib -0.052 | rucaparib 0.004 | [2] -0.015 | encorafenib 0.02 | [3] -0.011 | [4] -0.059 | filanesib 0.016 | zotarolimus 0.023 | idasanutlin 0.012 | alisertib 0.016 | [5] 0.066 | gefitinib 0.097 | [6] -0.029 | lapatinib -0.024 | pictilisib 0.136

DTD1 (UniProt Q8TEA8)
inactive: saracatinib 0.056 | sotrastaurin 0.033 | alvocidib 0.055 | Tubastatin A 0.025 | [1] -0.01 | defactinib -0.081 | rucaparib -0.054 | [2] -0.086 | encorafenib 0 | [3] 0.004 | [4] -0.014 | filanesib -0.03 | zotarolimus -0.042 | idasanutlin 0.004 | alisertib -0.063 | [5] 0.075 | gefitinib 0.026 | [6] 0.025 | lapatinib -0.023 | pictilisib 0

DRG2 (UniProt P55039)
inactive: saracatinib 0.004 | sotrastaurin 0.003 | alvocidib -0.018 | Tubastatin A 0.002 | [1] 0.019 | defactinib -0.017 | rucaparib -0.027 | [2] -0.021 | encorafenib 0.006 | [3] -0.016 | [4] -0.004 | filanesib -0.049 | zotarolimus 0.039 | idasanutlin -0.082 | alisertib -0.04 | [5] 0.079 | gefitinib -0.003 | [6] 0.021 | lapatinib -0.057 | pictilisib 0.071

Taken from the entries so far (two entries):
DUSP3 (UniProt P51452)
inactive: saracatinib 0.036 | sotrastaurin -0.009 | alvocidib -0.061 | Tubastatin A 0.084 | [1] 0.064 | defactinib -0.052 | rucaparib 0.004 | [2] -0.015 | encorafenib 0.02 | [3] -0.011 | [4] -0.059 | filanesib 0.016 | zotarolimus 0.023 | idasanutlin 0.012 | alisertib 0.016 | [5] 0.066 | gefitinib 0.097 | [6] -0.029 | lapatinib -0.024 | pictilisib 0.136

DTD1 (UniProt Q8TEA8)
inactive: saracatinib 0.056 | sotrastaurin 0.033 | alvocidib 0.055 | Tubastatin A 0.025 | [1] -0.01 | defactinib -0.081 | rucaparib -0.054 | [2] -0.086 | encorafenib 0 | [3] 0.004 | [4] -0.014 | filanesib -0.03 | zotarolimus -0.042 | idasanutlin 0.004 | alisertib -0.063 | [5] 0.075 | gefitinib 0.026 | [6] 0.025 | lapatinib -0.023 | pictilisib 0

Remaining list, next part

DPH3 (UniProt Q96FX2)
inactive: saracatinib 0.03 | sotrastaurin -0.048 | alvocidib -0.16 | Tubastatin A 0.027 | [1] 0.073 | defactinib 0.019 | rucaparib -0.036 | [2] -0.126 | encorafenib -0.044 | [3] 0.193 | [4] 0.217 | filanesib 0.095 | zotarolimus -0.046 | idasanutlin -0.124 | alisertib -0.033 | [5] -0.151 | gefitinib -0.052 | [6] -0.044 | lapatinib -0.088 | pictilisib -0.144

DNMT1 isoform 2 (UniProt P26358)
inactive: saracatinib 0.019 | sotrastaurin -0.014 | alvocidib -0.033 | Tubastatin A -0.009 | [1] 0.03 | defactinib -0.007 | rucaparib -0.011 | [2] -0.016 | encorafenib -0.006 | [3] -0.016 | [4] -0.023 | filanesib -0.033 | zotarolimus 0.027 | idasanutlin -0.037 | alisertib -0.034 | [5] 0.007 | gefitinib 0.022 | [6] -0.034 | lapatinib 0.005 | pictilisib 0.026

DYNLL1 (UniProt P63167)
inactive: saracatinib -0.036 | sotrastaurin -0.067 | alvocidib -0.035 | Tubastatin A 0.018 | [1] -0.007 | defactinib -0.051 | rucaparib 0.146 | [2] 0.026 | encorafenib -0.02 | [3] -0.122 | [4] 0.04 | filanesib -0.006 | zotarolimus 0.091 | idasanutlin 0.067 | alisertib 0.071 | [5] 0.007 | gefitinib 0.014 | [6] -0.024 | lapatinib 0.002 | pictilisib -0.113

DYNLL2 (UniProt Q96FJ2)
inactive: saracatinib -0.101 | sotrastaurin -0.095 | alvocidib -0.065 | Tubastatin A 0.038 | [1] -0.005 | defactinib -0.036 | rucaparib 0.113 | [2] 0.063 | encorafenib -0.041 | [3] -0.068 | [4] 0.118 | filanesib -0.07 | zotarolimus 0.076 | idasanutlin 0.017 | alisertib 0.003 | [5] 0.057 | gefitinib 0.047 | [6] -0.02 | lapatinib 0.045 | pictilisib -0.055

DNAJA3 (UniProt Q96EY1)
inactive: saracatinib -0.079 | sotrastaurin -0.027 | alvocidib 0.028 | Tubastatin A 0.018 | [1] -0.058 | defactinib -0.004 | rucaparib 0.317 | [2] 0.023 | encorafenib 0.04 | [3] -0.044 | [4] 0.015 | filanesib -0.018 | zotarolimus 0.05 | idasanutlin 0.058 | alisertib -0.018 | [5] -0.008 | gefitinib -0.046 | [6] 0.01 | lapatinib 0.003 | pictilisib -0.006

ECI1 (UniProt P42126)
inactive: saracatinib 0.008 | sotrastaurin 0.023 | alvocidib 0.008 | Tubastatin A -0.036 | [1] -0.021 | defactinib -0.008 | rucaparib 0.009 | [2] -0.05 | encorafenib -0.01 | [3] -0.074 | [4] -0.094 | filanesib -0.024 | zotarolimus 0.019 | idasanutlin -0.028 | alisertib 0.001 | [5] 0.014 | gefitinib -0.006 | [6] 0.061 | lapatinib -0.031 | pictilisib 0.032

DPAGT1 (UniProt Q9H3H5)
inactive: saracatinib -0.121 | sotrastaurin -0.008 | alvocidib -0.076 | Tubastatin A -0.114 | [1] 0.07 | defactinib -0.036 | rucaparib -0.026 | [2] 0.033 | encorafenib -0.038 | [3] 0.022 | [4] 0.045 | filanesib -0.047 | zotarolimus 0.04 | idasanutlin -0.045 | alisertib 0.019 | [5] -0.006 | gefitinib 0.02 | [6] 0.047 | lapatinib 0.027 | pictilisib -0.026

DNAJC17 (UniProt Q9NVM6)
inactive: saracatinib -0.006 | sotrastaurin 0.034 | alvocidib -0.022 | Tubastatin A 0.026 | [1] -0.046 | defactinib -0.057 | rucaparib -0.051 | [2] 0.005 | encorafenib 0.03 | [3] -0.011 | [4] 0.063 | filanesib -0.036 | zotarolimus -0.009 | idasanutlin -0.068 | alisertib -0.061 | [5] 0.026 | gefitinib 0.026 | [6] 0.002 | lapatinib -0.118 | pictilisib 0.121

EAPP (UniProt Q56P03)
inactive: saracatinib 0.03 | sotrastaurin 0.086 | alvocidib -0.05 | Tubastatin A -0.003 | [1] 0.031 | defactinib -0.241 | rucaparib 0.184 | [2] -0.04 | encorafenib -0.082 | [3] 0.073 | [4] -0.245 | filanesib 0.062 | zotarolimus 0.02 | idasanutlin 0.081 | alisertib -0.11 | [5] 0.08 | gefitinib -0.023 | [6] -0.039 | lapatinib 0.079 | pictilisib 0.007

DPY19L4 (UniProt Q7Z388)
inactive: saracatinib 0.054 | sotrastaurin 0.24 | alvocidib -0.1 | Tubastatin A 0.039 | [1] -0.062 | defactinib -0.126 | rucaparib 0.116 | [2] 0.27 | encorafenib -0.097 | [3] 0.028 | [4] -0.024 | filanesib -0.073 | zotarolimus -0.045 | idasanutlin -0.151 | alisertib -0.12 | [5] 0.054 | gefitinib -0.152 | [6] 0.072 | lapatinib -0.154 | pictilisib 0.009

DUSP12 (UniProt Q9UNI6)
inactive: saracatinib 0.025 | sotrastaurin 0.018 | alvocidib -0.07 | Tubastatin A 0.006 | [1] 0.035 | defactinib -0.056 | rucaparib -0.111 | [2] -0.025 | encorafenib 0.016 | [3] -0.007 | [4] 0.068 | filanesib -0.05 | zotarolimus 0.043 | idasanutlin -0.036 | alisertib -0.033 | [5] -0.07 | gefitinib 0.067 | [6] 0.042 | lapatinib 0.013 | pictilisib 0.191

EDEM3 (UniProt Q9BZQ6)
inactive: saracatinib -0.077 | sotrastaurin 0.005 | alvocidib 0.043 | Tubastatin A 0.061 | [1] -0.005 | defactinib 0.032 | rucaparib 0.135 | [2] -0.084 | encorafenib -0.047 | [3] -0.011 | [4] -0.031 | filanesib 0.067 | zotarolimus 0.018 | idasanutlin 0.018 | alisertib -0.016 | [5] 0.02 | gefitinib -0.041 | [6] -0.026 | lapatinib 0.053 | pictilisib -0.036
